From the supplement of paper PMC7238544
Where a name gives a salt, the structure may show the parent alone. ± gives the standard deviation of the averaged measurements. The list shows a part of the results. The data scatter; read single values as rough.

How the values were obtained:
hAMSC donor 1 [1] = experiment: Hoechst total cell count ratio vs vehicle control; higher = more cells (less toxicity)
hAMSC donor 2 [2] = experiment: as above
hAMSC donor 1 [3] = experiment: transgenic luciferase activity (RLU/mg protein) fold change vs vehicle control (ratio); higher = more transgene expression
hAMSC donor 2 [4] = experiment: as above
hAMSC donor 1 [5] = experiment: transfection efficiency (EGFP+ cells / Hoechst count) fold change vs vehicle control (ratio); hAMSC are human adipose-derived mesenchymal stem cells given an EGFP-luciferase plasmid by lipofection; higher = enhanced transfection
hAMSC donor 2 [6] = experiment: as above
[7] = priming compound concentration 0.2 µM
[8] = priming compound concentration 1.7 µM
[9] = priming compound concentration 13 µM

Structure (SMILES)	Hoechst total cell count ratio (hAMSC donor 1 [1]; [7])	Hoechst total cell count ratio (hAMSC donor 1 [1]; [8])	Hoechst total cell count ratio (hAMSC donor 1 [1]; [9])	Hoechst total cell count ratio (hAMSC donor 2 [2]; [7])	Hoechst total cell count ratio (hAMSC donor 2 [2]; [8])	Hoechst total cell count ratio (hAMSC donor 2 [2]; [9])	transgenic luciferase activity (hAMSC donor 1 [3]; [8])	transgenic luciferase activity (hAMSC donor 1 [3]; [9])	transgenic luciferase activity (hAMSC donor 2 [4]; [7])	transgenic luciferase activity (hAMSC donor 2 [4]; [8])	transgenic luciferase activity (hAMSC donor 2 [4]; [9])	transfection efficiency (hAMSC donor 1 [5]; [7])	transfection efficiency (hAMSC donor 1 [5]; [8])	transfection efficiency (hAMSC donor 1 [5]; [9])	transfection efficiency (hAMSC donor 2 [6]; [7])	transfection efficiency (hAMSC donor 2 [6]; [8])	transfection efficiency (hAMSC donor 2 [6]; [9])	transgenic luciferase activity (hAMSC donor 1 [3]; [7])
CN(C)C(=O)Oc1ccc[n+](C)c1 [Pyridostigmine bromide]	1.37 ± 0.15	1.22 ± 0.093	1.28 ± 0.16	1.15 ± 0.049	1.27 ± 0.029	1.16 ± 0.16	1.19 ± 0.53	0.398 ± 0.13	0.81 ± 0.1	0.577 ± 0.067	0.475 ± 0.082	0.849 ± 0.076	1.2 ± 0.29	1.05 ± 0.12	0.939 ± 0.12	0.943 ± 0.09	1.11 ± 0.25	–
C[C@]12CC[C@H](O)CC1=CC[C@@H]1[C@@H]2CC[C@@]2(C)[C@H]1CC[C@]2(C)O [Methylandrostenediol]	1.12 ± 0.03	1.17 ± 0.15	1.21 ± 0.14	1.07 ± 0.14	0.842 ± 0.15	1.28 ± 0.14	1.02 ± 0.39	1.39 ± 0.031	0.67 ± 0.17	0.72 ± 0.1	0.726 ± 0.19	1.07 ± 0.48	–	0.902 ± 0.36	1.23 ± 0.3	1.39 ± 0.11	0.997 ± 0.11	0.675 ± 0.16
CN[C@@H]1C[C@@H](c2ccc(Cl)c(Cl)c2)c2ccccc21 [Indatraline hydrochloride]	1.12 ± 0.048	1.07 ± 0.06	0.86 ± 0.0035	0.91 ± 0.038	1.12 ± 0.058	0.82 ± 0.055	1.19 ± 0.54	0.159 ± 0.13	0.927 ± 0.4	0.6 ± 0.036	0.741 ± 0.11	0.742 ± 0.07	0.91 ± 0.088	0.979 ± 0.17	1.14 ± 0.25	0.733 ± 0.12	0.8474 ± 0.005	0.935 ± 0.2
C=C(C)[C@@H]1[C@H]2OC(=O)[C@@H]1[C@]1(O)C[C@H]3O[C@]34C(=O)O[C@H]2[C@]14C.CC(C)(O)[C@@H]1[C@H]2OC(=O)[C@@H]1[C@]1(O)C[C@H]3O[C@]34C(=O)O[C@H]2[C@]14C [Picrotin - Picrotoxinin]	1.02 ± 0.051	1.285 ± 0.0066	1.08 ± 0.13	1.67 ± 0.48	0.915 ± 0.065	0.954 ± 0.033	1.54 ± 0.62	0.578 ± 0.39	1.2 ± 0.38	0.76 ± 0.038	1.93 ± 1.4	1.22 ± 0.077	0.978 ± 0.16	1.42 ± 0.38	0.729 ± 0.15	0.915 ± 0.093	1.34 ± 0.21	0.704 ± 0.23
C#CCN(C)[C@H](C)Cc1ccccc1 [Selegiline hydrochloride]	1.04 ± 0.046	1.37 ± 0.21	1.08 ± 0.12	1.25 ± 0.35	1.07 ± 0.11	1.08 ± 0.055	1.34 ± 0.86	0.143 ± 0.061	0.639 ± 0.19	0.439 ± 0.039	0.79 ± 0.25	0.995 ± 0.095	0.83 ± 0.2	1.22 ± 0.43	1.06 ± 0.15	0.966 ± 0.09	1.13 ± 0.16	0.91 ± 0.37
CN1CC[C@@H](c2ccc(F)cc2)[C@H](COc2ccc3c(c2)OCO3)C1 [N-Methylparoxetine]	1.16 ± 0.1	1.29 ± 0.11	1.4 ± 0.11	1.07 ± 0.051	1.07 ± 0.065	1.47 ± 0.063	0.184 ± 0.05	0.614 ± 0.38	0.892 ± 0.41	0.675 ± 0.085	0.558 ± 0.018	1.05 ± 0.1	0.624 ± 0.3	0.542 ± 0.23	1.38 ± 0.19	1.1 ± 0.13	0.588 ± 0.13	–
O=C1CN=C(c2ccccc2)c2cc([N+](=O)[O-])ccc2N1 [Nitrazepam]	1.29 ± 0.21	1.27 ± 0.089	1.34 ± 0.23	1.2 ± 0.12	0.769 ± 0.03	1.02 ± 0.18	0.726 ± 0.11	–	–	0.632 ± 0.13	0.495 ± 0.04	1.01 ± 0.29	1.12 ± 0.13	0.861 ± 0.1	0.865 ± 0.24	1.49 ± 0.052	1.15 ± 0.049	0.583 ± 0.26
O=C1CC[C@@]2(O)[C@H]3Cc4ccc(O)c5c4[C@@]2(CCN3CC2CC2)[C@H]1O5 [Naltrexone hydrochloride]	1.13 ± 0.07	1.2 ± 0.13	1.24 ± 0.15	1.3 ± 0.5	1.3 ± 0.043	1.45 ± 0.15	0.25 ± 0.03	1.02 ± 0.25	1.14 ± 0.12	0.737 ± 0.022	0.573 ± 0.096	0.924 ± 0.28	1.15 ± 0.35	0.97 ± 0.063	1.14 ± 0.22	1.1 ± 0.015	0.988 ± 0.26	–
CCOC(=O)C1(c2ccccc2)CCN(CCC(C#N)(c2ccccc2)c2ccccc2)CC1 [Diphenoxylate hydrochloride]	1.36 ± 0.21	1.06 ± 0.21	1.11 ± 0.16	1.13 ± 0.063	1.36 ± 0.34	1.45 ± 0.31	1.07 ± 0.23	0.537 ± 0.11	0.624 ± 0.21	1.24 ± 0.082	0.663 ± 0.18	1.05 ± 0.29	1.3 ± 0.1	1.07 ± 0.12	0.871 ± 0.14	1.09 ± 0.067	0.78 ± 0.33	–
CCCCCCCCCOc1ccc2[nH]cc(CCN)c2c1 [5-Nonyloxytryptamine hydrochloride]	1.12 ± 0.045	1.09 ± 0.18	0.442 ± 0.21	0.93 ± 0.31	0.956 ± 0.11	0.11 ± 0.014	1.2 ± 0.28	0.604 ± 0.15	0.699 ± 0.089	1.486 ± 0.0041	0.00323 ± 0.0024	1.3 ± 0.62	1.15 ± 0.13	1.95 ± 0.95	1.55 ± 0.49	1.7 ± 0.24	0.104 ± 0.1	0.7 ± 0.13
CN1C(=O)CN=C(c2ccccc2)c2cc(Cl)ccc21 [Diazepam]	1.18 ± 0.13	1.07 ± 0.13	1.07 ± 0.15	1.3 ± 0.14	0.94 ± 0.019	1.56 ± 0.26	0.612 ± 0.027	1.63 ± 1.9	0.663 ± 0.16	0.91 ± 0.079	0.991 ± 0.28	1.16 ± 0.55	1.33 ± 0.19	1.16 ± 0.32	0.957 ± 0.14	1.54 ± 0.28	1.07 ± 0.23	0.414 ± 0.096
C[C@]12CC[C@H]3[C@@H](CCC4=CC(=O)CC[C@@]43C)[C@@H]1CC[C@@H]2O [Testosterone]	1.43 ± 0.047	1.04 ± 0.13	1.27 ± 0.21	1.1 ± 0.12	1.39 ± 0.12	0.886 ± 0.46	1.46 ± 0.76	–	0.736 ± 0.11	0.8 ± 0.16	0.961 ± 0.33	1.03 ± 0.13	0.976 ± 0.13	0.974 ± 0.19	0.844 ± 0.1	0.742 ± 0.072	1.19 ± 0.25	0.625 ± 0.24
FC(F)(F)c1cccc(N2CCNCC2)c1 [TFMPP hydrochloride]	1.11 ± 0.19	1.07 ± 0.15	1.01 ± 0.11	1.41 ± 0.15	1.1 ± 0.051	1.1 ± 0.046	1.01 ± 0.12	1.17 ± 0.81	0.66 ± 0.17	0.59 ± 0.12	0.71 ± 0.19	0.709 ± 0.17	0.985 ± 0.21	1.25 ± 0.046	0.923 ± 0.12	0.987 ± 0.021	1.17 ± 0.31	1.2 ± 0.52

A section of the results above:
Structure (SMILES)	Hoechst total cell count ratio (hAMSC donor 1 [1]; [7])	Hoechst total cell count ratio (hAMSC donor 1 [1]; [8])	Hoechst total cell count ratio (hAMSC donor 1 [1]; [9])	Hoechst total cell count ratio (hAMSC donor 2 [2]; [7])	Hoechst total cell count ratio (hAMSC donor 2 [2]; [8])	Hoechst total cell count ratio (hAMSC donor 2 [2]; [9])	transgenic luciferase activity (hAMSC donor 1 [3]; [8])	transgenic luciferase activity (hAMSC donor 1 [3]; [9])	transgenic luciferase activity (hAMSC donor 2 [4]; [7])	transgenic luciferase activity (hAMSC donor 2 [4]; [8])	transgenic luciferase activity (hAMSC donor 2 [4]; [9])	transfection efficiency (hAMSC donor 1 [5]; [7])	transfection efficiency (hAMSC donor 1 [5]; [8])	transfection efficiency (hAMSC donor 1 [5]; [9])	transfection efficiency (hAMSC donor 2 [6]; [7])	transfection efficiency (hAMSC donor 2 [6]; [8])	transfection efficiency (hAMSC donor 2 [6]; [9])	transgenic luciferase activity (hAMSC donor 1 [3]; [7])
C[C@]12CC[C@H]3[C@@H](CCC4=CC(=O)CC[C@@]43C)[C@@H]1CC[C@@H]2O [Testosterone]	1.43 ± 0.047	1.04 ± 0.13	1.27 ± 0.21	1.1 ± 0.12	1.39 ± 0.12	0.886 ± 0.46	1.46 ± 0.76	–	0.736 ± 0.11	0.8 ± 0.16	0.961 ± 0.33	1.03 ± 0.13	0.976 ± 0.13	0.974 ± 0.19	0.844 ± 0.1	0.742 ± 0.072	1.19 ± 0.25	0.625 ± 0.24
FC(F)(F)c1cccc(N2CCNCC2)c1 [TFMPP hydrochloride]	1.11 ± 0.19	1.07 ± 0.15	1.01 ± 0.11	1.41 ± 0.15	1.1 ± 0.051	1.1 ± 0.046	1.01 ± 0.12	1.17 ± 0.81	0.66 ± 0.17	0.59 ± 0.12	0.71 ± 0.19	0.709 ± 0.17	0.985 ± 0.21	1.25 ± 0.046	0.923 ± 0.12	0.987 ± 0.021	1.17 ± 0.31	1.2 ± 0.52
